{
  "source": "patent US9315862B2",
  "about": "“Aptamer regulated nucleic acids and uses thereof” (California Institute of Technology, priority 2004, dated 2016)",
  "origin": "cited, not measured here",
  "target": "aptamer to tetracycline",
  "details": "cited from earlier work",
  "note": "At least one compound was matched to its structure with a doubt left.",
  "data": [
    {"smiles": "CN(C)[C@@H]1C(O)=C(C(N)=O)C(=O)[C@@]2(O)C(O)=C3C(=O)c4c(O)cccc4[C@@](C)(O)[C@H]3C[C@@H]12", "note": "[tetracycline]", "values": [
      {"measurement": "Kd", "value": 1000, "unit": "nM"}
    ]}
  ]
}
